Measured data: PubChem BioAssay AID493246 (Drosophila RNAi Screening Center, 2011)
The screen tested about 21,000 reagents; this is an unselected part of those with a known target gene and a result. In the full data, 429 (2%) were called active. 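Values are raw and not normalised between plates; calls rest on per-plate z-scores that were not deposited.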 A plus sign joins genes that one reagent is predicted to hit. Not given: the amount of reagent, the time to read-out.

Screen: 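Genes fly cells need to grow and stay alive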 (primary screen)
System: Drosophila Kc and S2R+ cells
Knock-down reagent: long dsRNA against Drosophila genes
Read-out: 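Raw, unnormalised count of remaining cells in each well; per-plate z-scores of cell number underlie the calls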
Scale: Kc cell number and S2R+ cell number: higher = more cells remaining
Call rule: 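Active when the per-plate z-score of cell number is 3 or more in the direction of fewer cells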

gene	dsRNA	Kc cell number, rep 1	Kc cell number, rep 2	S2R+ cell number, rep 1	S2R+ cell number, rep 2	Outcome
CG31161	DRSC16144	1.72e6	1.71e6	9.99e5	1.11e6	inactive
Shawn + Tyler	DRSC19564	1.55e6	1.63e6	1.02e6	1.22e6	inactive
Shawn + Tyler	DRSC19565	1.55e6	1.55e6	1.15e6	1.32e6	inactive
CG32369	DRSC10042	1.46e6	1.35e6	1.18e6	1.16e6	inactive
CG32369	DRSC10834	1.45e6	1.52e6	1.35e6	1.26e6	inactive
CG12519	DRSC10311	1.43e6	1.55e6	1.24e6	1.31e6	inactive
CG7208	DRSC16212	1.29e6	1.35e6	1.01e6	1.15e6	inactive
CG32512	DRSC20519	1.37e6	1.32e6	1.02e6	1.14e6	inactive
CG32512	DRSC20551	1.50e6	1.55e6	1.03e6	1.17e6	inactive
CG33978	DRSC17106	1.26e6	1.49e6	9.93e5	1.08e6	inactive

No new results follow: 2 of the entries above.
gene	dsRNA	Kc cell number, rep 1	Kc cell number, rep 2	S2R+ cell number, rep 1	S2R+ cell number, rep 2	Outcome
CG32512	DRSC20519	1.37e6	1.32e6	1.02e6	1.14e6	inactive
CG32512	DRSC20551	1.50e6	1.55e6	1.03e6	1.17e6	inactive

Further records follow.
gene	dsRNA	Kc cell number, rep 1	Kc cell number, rep 2	S2R+ cell number, rep 1	S2R+ cell number, rep 2	Outcome
CG6409	DRSC10630	1.34e6	1.41e6	1.06e6	1.20e6	inactive
Abi	DRSC14099	1.38e6	1.47e6	1.21e6	1.21e6	inactive
Tep1	DRSC03450	1.57e6	1.65e6	1.25e6	1.38e6	inactive
CG12374	DRSC06143	1.64e6	1.61e6	1.29e6	1.36e6	inactive
Khc-73	DRSC07449	1.36e6	1.40e6	1.09e6	1.11e6	inactive
Cul1	DRSC07645	1.35e6	1.39e6	9.42e5	1.01e6	inactive
Poxm	DRSC16793	1.34e6	1.34e6	9.87e5	1.13e6	inactive
CG17249	DRSC08517	1.31e6	1.35e6	1.14e6	1.18e6	inactive
Cth	DRSC07422	1.49e6	1.50e6	1.12e6	1.11e6	inactive
Hmt-1	DRSC15555	1.62e6	1.72e6	1.16e6	1.25e6	inactive
Bhmt	DRSC02079	1.48e6	1.55e6	1.20e6	3.14e5	inactive
CG9988	DRSC16587	1.58e6	1.57e6	1.06e6	1.14e6	inactive
ds	DRSC00815	1.47e6	1.54e6	1.05e6	1.17e6	inactive
CG33269	DRSC10585	1.21e6	1.22e6	1.11e6	1.17e6	inactive
